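Vaccinia-infected cells with a two-color viral stage reporter; Venus fluorescence read on a plate reader; the cell line is not named here; timing not stated here.
The test concentration is not given here.
Percent change in Venus reporter signal; lower (more negative) values mean stronger inhibition of that viral stage.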

Values are in %.
The controls that fix the scale are not given here.
Common to all entries: measured here: Venus reporter, other viral stage.
This is a side read-out of the assay, for part of the compounds, not drawn at random.

| SMILES | activity change (Venus) (%) |
|---|---|
| `Cc1ccccc1S(=O)(=O)N1CCCCN2[C@@H](CO)[C@@H](c3ccc(-c4ccccc4)cc3)[C@@H]2C1` | -24.59 |
| `C[C@@H]1CN([C@@H](C)CO)C(=O)c2cc(NC(=O)Nc3ccc(C(F)(F)F)cc3)ccc2O[C@H]1CN(C)Cc1ccc(Oc2ccccc2)cc1` | -62.17 |
| `CO[C@H]1CN(C)C(=O)c2cc(NC(=O)c3ccc(-c4ccccc4)cc3)ccc2OC[C@H](C)NC[C@@H]1C` | -44.37 |
| `O=C(c1cccc(F)c1)N1CC(=O)N2[C@@H](CO)[C@@H](c3ccc(C#Cc4ccc(F)cc4)cc3)[C@@H]2C1` | -75.38 |
| `COc1ccc([Si](C)(C)[C@@H]2[C@@H](CCO)O[C@]3(C(=O)N(Cc4cccc(N5CCCCC5=O)c4)c4ccccc43)[C@H]2C)cc1` | -55.56 |
| `CC(C)NC(=O)N(C)C[C@H]1Oc2c(NC(=O)Nc3ccc(C(F)(F)F)cc3)cccc2C(=O)N([C@@H](C)CO)C[C@H]1C` | -75.22 |
| `Cc1ccc(CN2CC(=O)N3[C@H](CO)[C@H](c4ccc(Br)cc4)[C@H]3C2)cc1` | -53.51 |
| `CN1c2ccc(-c3cccc(C#N)c3)cc2[C@H]2[C@H](CCN2S(=O)(=O)c2ccccc2F)[C@H]1CO` | -26.3 |
| `C[C@H]1CN([C@@H](C)CO)C(=O)c2cccc(NC(=O)c3nc4ccccc4s3)c2O[C@@H]1CN(C)Cc1ccccc1` | -49.18 |
| `COc1ccccc1-c1cnc2c(c1)C(=O)N([C@@H](C)CO)C[C@@H](C)[C@H](CN(C)Cc1cccc(F)c1)O2` | -38.42 |
| `COc1cccc(S(=O)(=O)N2CCCCN3[C@@H](CO)[C@@H](c4ccc(C#CC5CC5)cc4)[C@@H]3C2)c1` | -49.51 |
| `Cc1ccc(S(=O)(=O)Nc2ccc3c(c2)C(=O)N([C@H](C)CO)C[C@@H](C)[C@H](CN(C)S(=O)(=O)c2c(C)noc2C)OCCCC[C@H](C)O3)cc1` | -33.13 |
| `O=C(C[C@H]1CC[C@H]2[C@@H](COC[C@@H](O)CN2S(=O)(=O)c2ccc(Oc3ccccc3)cc2)O1)NC1CCC1` | -23.08 |
| `C[C@H](CO)N1C[C@H](C)[C@@H](CN(C)Cc2ccc(Cl)c(Cl)c2)Oc2ccc(N(C)C)cc2CC1=O` | -73.04 |
| `C[C@@H]1CN([C@@H](C)CO)C(=O)c2cccc(NC(=O)NC3CCCCC3)c2O[C@H]1CN(C)Cc1ccc2c(c1)OCO2` | -25.46 |
| `C[C@H](CO)N1C[C@H](C)[C@H](CN(C)S(=O)(=O)c2ccc(C#N)cc2)Oc2ncc(C#Cc3ccc(C(F)(F)F)cc3)cc2C1=O` | -45.01 |
| `C[C@@H]1CN([C@H](C)CO)C(=O)c2cc(NC(=O)NC3CCCCC3)ccc2O[C@@H]1CN(C)Cc1ccc(Oc2ccccc2)cc1` | -28.13 |
| `CN1c2ccc(C3=CCCCC3)cc2[C@H]2[C@H](CCN2C(=O)C2CCCCC2)[C@H]1CO` | -28.8 |
| `COc1ccc2c3c(n(C)c2c1)[C@H](CO)NCC31CCN(Cc2cc(-c3ccccc3)on2)CC1` | -57.96 |
| `COc1ccc2c3c([nH]c2c1)[C@H](CO)N(Cc1ccccn1)CC31CCN(Cc2cccc(F)c2)CC1` | -21.85 |
| `C[C@@H]1CN([C@@H](C)CO)C(=O)c2c(c3ccccc3n2C)-c2ccccc2CO[C@@H]1CN(C)Cc1ccccc1C(F)(F)F` | -65.33 |
| `C[C@H]1CN([C@@H](C)CO)C(=O)c2c(c3ccccc3n2C)-c2ccccc2CO[C@@H]1CN(C)S(=O)(=O)c1ccccc1` | -68.1 |
| `Cc1noc(C)c1NC(=O)Nc1ccc2c(c1)C(=O)N([C@@H](C)CO)C[C@@H](C)[C@H](CN(C)Cc1ccc(C(F)(F)F)cc1)OCCCC[C@H](C)O2` | -41.32 |
| `C[C@H]1CN([C@@H](C)CO)C(=O)c2c(c3ccccc3n2C)-c2ccccc2CO[C@H]1CN(C)C(=O)Nc1cccc(C(F)(F)F)c1` | -40.42 |
| `C[C@@H]1CN([C@H](C)CO)S(=O)(=O)c2ccc(C3=CCCCC3)cc2O[C@H]1CN(C)C(=O)c1ccc(F)cc1` | -41.68 |
| `COc1ccc2c3c([nH]c2c1)[C@H](CO)N(C(C)=O)CC31CCN(Cc2ccccc2Cl)CC1` | -31.78 |
| `C[C@@H]1CN([C@@H](C)CO)C(=O)c2cc(-c3ccccc3F)cnc2O[C@@H]1CN(C)Cc1cccc(F)c1` | -20.43 |
| `C[C@@H]1CN([C@@H](C)CO)S(=O)(=O)c2ccc(C#Cc3cccc(F)c3)cc2O[C@H]1CN(C)C(=O)NC1CCCCC1` | -25.74 |
| `COc1cccc(NC(=O)N[C@H]2CC[C@@H](CC(=O)Nc3ccc(-c4ccccc4)cc3)O[C@@H]2CO)c1` | -32.76 |
| `O=C(Nc1ccc(F)cc1)N1CCCCN2[C@H](CO)[C@@H](c3ccc(C4=CCCCC4)cc3)[C@H]2C1` | -60.68 |
| `Cc1noc(C)c1S(=O)(=O)Nc1ccc2c(c1)C(=O)N([C@@H](C)CO)C[C@@H](C)[C@@H](CN(C)Cc1ccc(-c3ccccc3)cc1)O2` | -29.82 |
| `COc1ccccc1NC(=O)N1C[C@H](O)COC[C@@H]2O[C@H](CC(=O)N3CCC(Cc4ccccc4)CC3)CC[C@H]21` | -32.08 |
| `C[C@H]1CCCCO[C@H](CN(C)Cc2ccccc2)[C@@H](C)CN([C@@H](C)CO)C(=O)c2cc(NS(=O)(=O)c3ccc(F)cc3)ccc2O1` | -47.29 |
| `Cc1ccc(S(=O)(=O)N(C)C[C@H]2OCCCC[C@@H](C)Oc3ccc(NS(=O)(=O)c4cccs4)cc3C(=O)N([C@@H](C)CO)C[C@H]2C)cc1` | -25.06 |
| `O=C(Nc1ccc(Cl)cc1)N1C[C@H]2[C@@H](c3ccccc31)[C@H](CO)N2CC1CCCCC1` | -37.35 |
| `CO[C@@H](CN(C)S(=O)(=O)c1ccc(Cl)cc1)[C@@H](C)CN([C@@H](C)CO)S(=O)(=O)c1cccc(Cl)c1` | -49.72 |
| `O=C(c1ccc2c(c1)OCO2)N1CC(=O)N2[C@H](CO)[C@@H](c3ccc(C#CCC4CCCC4)cc3)[C@@H]2C1` | -72.23 |
| `C[C@@H]1CCCCO[C@@H](CN(C)Cc2ccccc2)[C@H](C)CN([C@H](C)CO)C(=O)c2cc(NC(=O)Nc3ccc(F)cc3)ccc2O1` | -62.03 |

Repeated from the top, 3 entries:

| SMILES | activity change (Venus) (%) |
|---|---|
| `Cc1ccccc1S(=O)(=O)N1CCCCN2[C@@H](CO)[C@@H](c3ccc(-c4ccccc4)cc3)[C@@H]2C1` | -24.59 |
| `C[C@@H]1CN([C@@H](C)CO)C(=O)c2cc(NC(=O)Nc3ccc(C(F)(F)F)cc3)ccc2O[C@H]1CN(C)Cc1ccc(Oc2ccccc2)cc1` | -62.17 |
| `CO[C@H]1CN(C)C(=O)c2cc(NC(=O)c3ccc(-c4ccccc4)cc3)ccc2OC[C@H](C)NC[C@@H]1C` | -44.37 |

The results are deposited in PubChem (AID1053133; Broad Institute, 2014).